Publication PMC9464213
Results are given in words; binding and its absence hold for the method and conditions named. Binding seen in cells or lysates may run through a third protein. Some results given as binding are weak or reduced against the parent protein; the word gives no strength.

Protein sequences, listed by entry. Tags and fused reporters are not part of them.
UniProt P46937: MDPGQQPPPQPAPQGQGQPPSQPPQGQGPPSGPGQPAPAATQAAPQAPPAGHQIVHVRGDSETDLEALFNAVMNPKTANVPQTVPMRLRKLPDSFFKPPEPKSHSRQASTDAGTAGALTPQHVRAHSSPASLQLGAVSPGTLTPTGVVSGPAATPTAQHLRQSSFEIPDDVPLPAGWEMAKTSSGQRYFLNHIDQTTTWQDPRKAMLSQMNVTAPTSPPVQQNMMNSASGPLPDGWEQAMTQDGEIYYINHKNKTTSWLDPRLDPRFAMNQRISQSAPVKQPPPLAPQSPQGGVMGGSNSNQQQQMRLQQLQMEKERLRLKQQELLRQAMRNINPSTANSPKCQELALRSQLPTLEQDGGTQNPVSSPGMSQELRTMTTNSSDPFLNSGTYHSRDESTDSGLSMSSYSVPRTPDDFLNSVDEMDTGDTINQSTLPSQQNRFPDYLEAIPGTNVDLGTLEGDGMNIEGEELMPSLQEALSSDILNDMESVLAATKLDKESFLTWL

Molecular target: T1, Basonuclin 2 (BNC2), endogenous in LX2 cells (human (endogenous in LX2)) (UniProt Q6ZN30)
T1 sequence: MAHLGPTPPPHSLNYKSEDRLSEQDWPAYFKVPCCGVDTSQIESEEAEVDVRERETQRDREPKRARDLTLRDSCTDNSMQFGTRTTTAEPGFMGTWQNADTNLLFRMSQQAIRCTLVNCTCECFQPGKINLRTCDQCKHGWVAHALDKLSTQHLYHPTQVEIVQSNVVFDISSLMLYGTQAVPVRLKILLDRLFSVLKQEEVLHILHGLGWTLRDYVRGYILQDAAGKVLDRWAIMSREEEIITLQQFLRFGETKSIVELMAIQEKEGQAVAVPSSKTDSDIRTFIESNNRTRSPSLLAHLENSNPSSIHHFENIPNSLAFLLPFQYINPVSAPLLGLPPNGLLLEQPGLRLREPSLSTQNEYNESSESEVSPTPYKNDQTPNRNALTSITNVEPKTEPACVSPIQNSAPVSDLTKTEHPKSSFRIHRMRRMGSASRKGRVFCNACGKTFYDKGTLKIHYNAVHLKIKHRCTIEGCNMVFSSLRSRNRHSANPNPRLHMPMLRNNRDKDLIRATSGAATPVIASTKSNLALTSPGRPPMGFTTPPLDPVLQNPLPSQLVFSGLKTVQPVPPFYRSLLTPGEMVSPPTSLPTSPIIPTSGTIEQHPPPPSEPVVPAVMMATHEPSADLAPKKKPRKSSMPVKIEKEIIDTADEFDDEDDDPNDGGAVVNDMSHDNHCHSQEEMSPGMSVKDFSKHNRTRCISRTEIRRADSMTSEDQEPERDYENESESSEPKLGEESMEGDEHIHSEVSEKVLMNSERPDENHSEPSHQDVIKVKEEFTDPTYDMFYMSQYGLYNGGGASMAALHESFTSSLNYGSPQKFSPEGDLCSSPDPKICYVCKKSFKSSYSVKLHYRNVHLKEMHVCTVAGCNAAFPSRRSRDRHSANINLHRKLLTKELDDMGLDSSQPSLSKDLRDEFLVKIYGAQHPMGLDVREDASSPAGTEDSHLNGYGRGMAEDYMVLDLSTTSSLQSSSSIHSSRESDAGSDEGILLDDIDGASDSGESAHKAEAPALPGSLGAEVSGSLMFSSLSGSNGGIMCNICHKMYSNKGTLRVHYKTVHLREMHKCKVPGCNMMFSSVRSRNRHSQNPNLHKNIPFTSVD
Test: co-IP; endogenous proteins cross-linked in LX2 cells with 1% formaldehyde for 10 min; nuclear extract immunoprecipitated with anti-BNC2 antibody or control IgG; western blot

Yes-Associated Protein 1 (YAP1), endogenous in LX2 cells (from UniProt P46937 1-504)
binding: binds
